Reference: patent US7247611
No constants are given. Whether binding was seen depends on the method and setting. Some binding calls cover weakened binding; strength is not graded here.

Columns and labels:
[1] = biological target: single chain urokinase-type plasminogen activator (UniProt P00749); test: inferred from the cell binding experiments with scuPA, peptide and PAI-1
[2] = biological target: single chain urokinase-type plasminogen activator (UniProt P00749); test: 125I-scuPA preincubated with PAI-1, then peptide EEIIMD, on LM-TK- cells (FIG. 2)
[3] = biological target: single chain urokinase-type plasminogen activator (UniProt P00749); test: 125I-scuPA on LM-TK- cells with peptide (FIG. 1A); indirect read-out of the peptide acting on scuPA

| binding [1] | binding [2] | binding [3] | Binder |
| --- | --- | --- | --- |
| binds | binds | – | EEIIMD [peptide EEIIMD (SEQ ID NO: 3)] |
| – | – | binds | REIIMD [peptide REIIMD (SEQ ID NO: 4)] |
